Results are given in words; binding and its absence hold for the method and conditions named. In cells and extracts the contact can be indirect. Some binding calls cover weakened binding; strength is not graded here. Tags and fused reporters may be left off the sequences shown.

T1: N-terminal FLAG-tagged VAP-A (vesicle-associated membrane protein-associated protein A) (human) (UniProt Q9P0L0)
T1 sequence: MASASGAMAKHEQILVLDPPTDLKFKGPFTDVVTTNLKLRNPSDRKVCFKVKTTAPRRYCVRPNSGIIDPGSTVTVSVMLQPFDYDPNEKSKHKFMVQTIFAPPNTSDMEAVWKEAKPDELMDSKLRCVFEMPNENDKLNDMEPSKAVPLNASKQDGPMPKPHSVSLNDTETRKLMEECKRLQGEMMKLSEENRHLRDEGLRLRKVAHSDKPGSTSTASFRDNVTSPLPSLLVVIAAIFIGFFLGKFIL

B1: Recombinant human CERT S132A/13A purified from Sf21 cells (natural protein, UniProt Q9Y5P4-2 1-598, looked up)
chain: MSDNQSWNSSGSEEDPETESGPPVERCGVLSKWTNYIHGWQDRWVVLKNNALSYYKSEDETEYGCRGSICLSKAVITPHDFDECRFDISVNDSVWYLRAQDPDHRQQWIDAIEQHKTESGYGSESSLRRHGAMVSLVSGASGYSATSTSSFKKGHSLREKLAEMETFRDILCRQVDTLQKYFDACADAVSKDELQRDKVVEDDEDDFPTTRSDGDFLHSTNGNKEKLFPHVTPKGINGIDFKGEAITFKATTAGILATLSHCIELMVAAEDSWQAALDAETEAAAATEEAYANAMTELAAASHFGGPDYEEGPNSLINEEEFFDAVEAALDRQDKIEEQSQSEKVRLHWPTSLPSGDAFSSVGTHRFVQKVEEMVQNHMTYSLQDVGGDANWQLVVEEGEMKVYRREVEENGIVLDPLKATHAVKGVTGHEVCNYFWNVDVRNDWETTIENFHVVETLADNAIIIYQTHKRVWPASQRDVLYLSVIRKIPALTENDPETWIVCNFSVDHDSAPLNNRCVRAKINVAMICQTLVSPPEGNQEISRDNILCKITYVANVNPGGWAPASVLRAVAKREYPKFLKRFTSYVQEKTAGKPILF
notes: Ceramide transport protein CERT (GPBPΔ26), human, printed length 598 amino acids; The template plasmid is named pBS/nHAcFL-CERT, which may mean a further C-terminal FLAG tag; also called S132/13A; not shown: HA, N-terminal, kept
B2: N-terminal HA-tagged CERT 13A (protein, UniProt Q9Y5P4-2 1-598)
chain: MSDNQSWNSSGSEEDPETESGPPVERCGVLSKWTNYIHGWQDRWVVLKNNALSYYKSEDETEYGCRGSICLSKAVITPHDFDECRFDISVNDSVWYLRAQDPDHRQQWIDAIEQHKTESGYGSESSLRRHGSMVSLVSGASGYSATSTSSFKKGHSLREKLAEMETFRDILCRQVDTLQKYFDACADAVSKDELQRDKVVEDDEDDFPTTRSDGDFLHSTNGNKEKLFPHVTPKGINGIDFKGEAITFKATTAGILATLSHCIELMVAAEDSWQAALDAETEAAAATEEAYANAMTELAAASHFGGPDYEEGPNSLINEEEFFDAVEAALDRQDKIEEQSQSEKVRLHWPTSLPSGDAFSSVGTHRFVQKVEEMVQNHMTYSLQDVGGDANWQLVVEEGEMKVYRREVEENGIVLDPLKATHAVKGVTGHEVCNYFWNVDVRNDWETTIENFHVVETLADNAIIIYQTHKRVWPASQRDVLYLSVIRKIPALTENDPETWIVCNFSVDHDSAPLNNRCVRAKINVAMICQTLVSPPEGNQEISRDNILCKITYVANVNPGGWAPASVLRAVAKREYPKFLKRFTSYVQEKTAGKPILF
B3: Recombinant human CERT S132A purified from Sf21 cells (natural protein, UniProt Q9Y5P4-2 1-598, looked up)
chain: MSDNQSWNSSGSEEDPETESGPPVERCGVLSKWTNYIHGWQDRWVVLKNNALSYYKSEDETEYGCRGSICLSKAVITPHDFDECRFDISVNDSVWYLRAQDPDHRQQWIDAIEQHKTESGYGSESSLRRHGAMVSLVSGASGYSATSTSSFKKGHSLREKLAEMETFRDILCRQVDTLQKYFDACADAVSKDELQRDKVVEDDEDDFPTTRSDGDFLHSTNGNKEKLFPHVTPKGINGIDFKGEAITFKATTAGILATLSHCIELMVKREDSWQKRLDKETEKKRRTEEAYKNAMTELKKKSHFGGPDYEEGPNSLINEEEFFDAVEAALDRQDKIEEQSQSEKVRLHWPTSLPSGDAFSSVGTHRFVQKVEEMVQNHMTYSLQDVGGDANWQLVVEEGEMKVYRREVEENGIVLDPLKATHAVKGVTGHEVCNYFWNVDVRNDWETTIENFHVVETLADNAIIIYQTHKRVWPASQRDVLYLSVIRKIPALTENDPETWIVCNFSVDHDSAPLNNRCVRAKINVAMICQTLVSPPEGNQEISRDNILCKITYVANVNPGGWAPASVLRAVAKREYPKFLKRFTSYVQEKTAGKPILF
notes: Ceramide transport protein CERT (GPBPΔ26), human, printed length 598 amino acids; The template plasmid is named pBS/nHAcFL-CERT, which may mean a further C-terminal FLAG tag; Mainly a homo-trimer by cross-linking and blue native PAGE; not shown: HA, N-terminal, kept

The assay addresses T1, N-terminal FLAG-tagged VAP-A (vesicle-associated membrane protein-associated protein A) (human). Description: co-IP; HA-CERT and FLAG-VAP-A co-expressed in CERT KO HeLa cells; cells cross-linked with 2 mM dithiobis(succinimidyl propionate) on ice 30 min before lysis in 1% Triton X-100; IP with anti-HA or anti-FLAG M2 agarose; cross-link cleaved with DTT; western blot. In general terms: In western blotting, separated proteins are transferred to a membrane and probed.
On to B1, for which the binding result is “binds”.

In the case of B2, the binding result is listed as “binds”.

With B3, the binding result was “binds”.
